According to PMC8120818:
No constants are given. Whether binding was seen depends on the method and setting. In cells and extracts the contact can be indirect. Some entries that bind do so weakly or less than the wild type.

Protein sequences, listed by entry. Tags and fused reporters are not part of them.
UniProt P01106: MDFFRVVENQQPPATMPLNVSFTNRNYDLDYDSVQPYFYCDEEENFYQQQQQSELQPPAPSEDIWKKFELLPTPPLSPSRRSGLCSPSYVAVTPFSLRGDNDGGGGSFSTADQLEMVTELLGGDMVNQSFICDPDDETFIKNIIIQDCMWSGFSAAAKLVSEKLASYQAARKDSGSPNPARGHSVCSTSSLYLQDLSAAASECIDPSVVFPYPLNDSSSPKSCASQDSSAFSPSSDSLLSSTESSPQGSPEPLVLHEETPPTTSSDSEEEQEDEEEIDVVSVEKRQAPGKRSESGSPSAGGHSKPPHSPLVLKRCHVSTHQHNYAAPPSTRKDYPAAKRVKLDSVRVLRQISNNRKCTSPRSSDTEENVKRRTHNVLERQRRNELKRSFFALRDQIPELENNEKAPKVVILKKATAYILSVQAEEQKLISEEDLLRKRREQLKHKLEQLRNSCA

Target: c-Myc (myelocytomatosis virus oncogene cellular homolog) (human (endogenous in human cell lines; line not stated)) (UniProt P01106)
Assay: co-IP; cells lysed in RIPA buffer with 1% PMSF and 1% protease inhibitor; 5 ug primary antibody (METTL13, abcam ab186002; c-Myc, Santa Cruz sc-40) or homologous IgG with lysate at 4 °C overnight; protein A/G beads 1 h at 4 °C, washed three times; western blot; cell line not stated

B1: Methyltransferase like 13 (METTL13) (protein, UniProt Q8N6R0 1-699)
chain: MNLLPKSSREFGSVDYWEKFFQQRGKKAFEWYGTYLELCGVLHKYIKPREKVLVIGCGNSELSEQLYDVGYRDIVNIDISEVVIKQMKECNATRRPQMSFLKMDMTQMEFPDASFQVVLDKGTLDAVLTDEEEKTLQQVDRMLAEVGRVLQVGGRYLCISLAQAHILKKAVGHFSREGWMVRVHQVANSQDQVLEAEPQFSLPVFAFIMTKFRPVPGSALQIFELCAQEQRKPVRLESAERLAEAVQERQQYAWLCSQLRRKARLGSVSLDLCDGDTGEPRYTLHVVDSPTVKPSRDNHFAIFIIPQGRETEWLFGMDEGRKQLAASAGFRRLITVALHRGQQYESMDHIQAELSARVMELAPAGMPTQQQVPFLSVGGDIGVRTVQHQDCSPLSGDYVIEDVQGDDKRYFRRLIFLSNRNVVQSEARLLKDVSHKAQKKRKKDRKKQRPADAEDLPAAPGQSIDKSYLCCEHHKAMIAGLALLRNPELLLEIPLALLVVGLGGGSLPLFVHDHFPKSCIDAVEIDPSMLEVATQWFGFSQSDRMKVHIADGLDYIASLAGGGEARPCYDVIMFDVDSKDPTLGMSCPPPAFVEQSFLQKVKSILTPEGVFILNLVCRDLGLKDSVLAGLKAVFPLLYVRRIEGEVNEILFCQLHPEQKLATPELLETAQALERTLRKPGRGWDDTYVLSDMLKTVKIV
  binding: binds
